Results as given in article PMC10224320.
These are yes or no findings as the source states them, for the method shown. In cells and extracts the contact can be indirect. A result given as binding can be weak or reduced; the word gives no strength.

By UniProt entry, the sequences of proteins in these tests, tags left out. Where a name states a change or a piece, a line headed by the entry shows the natural chain unless it says otherwise.
UniProt P03953: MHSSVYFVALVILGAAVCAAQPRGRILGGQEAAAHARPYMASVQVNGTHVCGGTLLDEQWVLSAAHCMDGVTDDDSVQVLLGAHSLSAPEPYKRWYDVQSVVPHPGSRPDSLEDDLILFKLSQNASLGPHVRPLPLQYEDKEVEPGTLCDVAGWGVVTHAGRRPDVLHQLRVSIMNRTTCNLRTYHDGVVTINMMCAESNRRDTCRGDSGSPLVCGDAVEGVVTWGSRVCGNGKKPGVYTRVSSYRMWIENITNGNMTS
UniProt P41241: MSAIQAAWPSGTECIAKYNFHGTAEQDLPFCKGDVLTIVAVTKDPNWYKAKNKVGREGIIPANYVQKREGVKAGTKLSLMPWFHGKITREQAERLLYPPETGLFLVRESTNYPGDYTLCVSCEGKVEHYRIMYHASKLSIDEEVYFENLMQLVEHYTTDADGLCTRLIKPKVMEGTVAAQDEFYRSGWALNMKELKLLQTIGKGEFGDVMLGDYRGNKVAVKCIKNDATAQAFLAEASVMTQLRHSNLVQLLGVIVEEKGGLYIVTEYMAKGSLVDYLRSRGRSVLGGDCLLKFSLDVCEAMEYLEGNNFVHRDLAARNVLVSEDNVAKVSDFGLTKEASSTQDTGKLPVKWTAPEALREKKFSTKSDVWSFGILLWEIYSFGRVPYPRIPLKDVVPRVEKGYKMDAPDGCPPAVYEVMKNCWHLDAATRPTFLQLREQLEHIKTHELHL

Target: Adipsin (mouse (from mouse adipose tissue exosomes, in mouse CMECs; the species of the transgene's cDNA is not stated)) (UniProt P03953)
Assay: co-IP; cell lysates in RIPA buffer; specific antibody with Pierce Protein A/G Magnetic Beads; SDS-PAGE and Western blot; which protein was precipitated not given

binding: binds
Substance: Tyrosine-protein kinase Csk (from UniProt P41241 1-450) (enzyme)
